Measurements taken from PMC8172852.
These are yes or no findings as the source states them, for the method shown. Binding seen in cells or lysates may run through a third protein. Some results given as binding are weak or reduced against the parent protein; the word gives no strength. Where a sequence is shown, tags or fusion partners need not be part of it.

By UniProt entry, the sequences of proteins in these tests, tags left out.
UniProt P00722: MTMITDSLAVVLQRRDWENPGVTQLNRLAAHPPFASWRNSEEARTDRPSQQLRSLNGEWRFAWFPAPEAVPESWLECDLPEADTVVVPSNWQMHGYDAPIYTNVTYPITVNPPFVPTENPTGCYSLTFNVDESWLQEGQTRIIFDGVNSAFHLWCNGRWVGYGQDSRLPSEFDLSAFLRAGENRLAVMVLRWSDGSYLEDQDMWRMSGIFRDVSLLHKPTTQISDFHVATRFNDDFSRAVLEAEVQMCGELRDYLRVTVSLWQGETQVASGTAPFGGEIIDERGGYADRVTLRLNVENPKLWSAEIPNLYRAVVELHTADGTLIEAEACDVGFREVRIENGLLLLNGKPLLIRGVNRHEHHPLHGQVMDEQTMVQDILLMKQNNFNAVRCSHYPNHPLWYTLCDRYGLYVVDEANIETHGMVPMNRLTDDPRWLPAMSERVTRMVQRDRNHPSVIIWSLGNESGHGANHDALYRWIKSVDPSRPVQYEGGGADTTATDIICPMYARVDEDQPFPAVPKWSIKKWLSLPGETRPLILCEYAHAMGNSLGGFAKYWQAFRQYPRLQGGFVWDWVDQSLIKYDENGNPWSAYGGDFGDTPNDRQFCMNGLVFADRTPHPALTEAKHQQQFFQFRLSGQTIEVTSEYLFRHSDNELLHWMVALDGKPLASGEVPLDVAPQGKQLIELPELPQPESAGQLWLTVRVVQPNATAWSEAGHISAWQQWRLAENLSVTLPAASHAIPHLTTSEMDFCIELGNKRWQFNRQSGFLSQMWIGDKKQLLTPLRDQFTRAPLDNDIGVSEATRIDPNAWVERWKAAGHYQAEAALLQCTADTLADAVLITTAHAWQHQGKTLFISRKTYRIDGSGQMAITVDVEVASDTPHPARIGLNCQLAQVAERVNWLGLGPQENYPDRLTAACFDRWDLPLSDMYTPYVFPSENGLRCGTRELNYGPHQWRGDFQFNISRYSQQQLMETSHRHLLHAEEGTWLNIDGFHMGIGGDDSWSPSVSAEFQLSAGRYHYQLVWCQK

T1: HA-tagged Nprl2 (Drosophila) (UniProt Q9VXA0)
T1 sequence: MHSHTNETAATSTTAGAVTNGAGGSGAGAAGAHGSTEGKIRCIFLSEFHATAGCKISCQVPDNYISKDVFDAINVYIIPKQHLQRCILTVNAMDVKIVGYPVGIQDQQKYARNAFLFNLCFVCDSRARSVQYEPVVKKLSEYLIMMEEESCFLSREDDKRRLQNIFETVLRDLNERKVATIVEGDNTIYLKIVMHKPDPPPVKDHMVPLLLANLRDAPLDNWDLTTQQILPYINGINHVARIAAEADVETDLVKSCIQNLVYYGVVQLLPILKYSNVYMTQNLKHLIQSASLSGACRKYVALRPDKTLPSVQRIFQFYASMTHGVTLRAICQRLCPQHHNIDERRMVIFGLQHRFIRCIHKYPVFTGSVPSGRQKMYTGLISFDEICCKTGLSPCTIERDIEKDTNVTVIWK

T2: HA-tagged Nprl3 (Drosophila) (UniProt Q9VUB4)
T2 sequence: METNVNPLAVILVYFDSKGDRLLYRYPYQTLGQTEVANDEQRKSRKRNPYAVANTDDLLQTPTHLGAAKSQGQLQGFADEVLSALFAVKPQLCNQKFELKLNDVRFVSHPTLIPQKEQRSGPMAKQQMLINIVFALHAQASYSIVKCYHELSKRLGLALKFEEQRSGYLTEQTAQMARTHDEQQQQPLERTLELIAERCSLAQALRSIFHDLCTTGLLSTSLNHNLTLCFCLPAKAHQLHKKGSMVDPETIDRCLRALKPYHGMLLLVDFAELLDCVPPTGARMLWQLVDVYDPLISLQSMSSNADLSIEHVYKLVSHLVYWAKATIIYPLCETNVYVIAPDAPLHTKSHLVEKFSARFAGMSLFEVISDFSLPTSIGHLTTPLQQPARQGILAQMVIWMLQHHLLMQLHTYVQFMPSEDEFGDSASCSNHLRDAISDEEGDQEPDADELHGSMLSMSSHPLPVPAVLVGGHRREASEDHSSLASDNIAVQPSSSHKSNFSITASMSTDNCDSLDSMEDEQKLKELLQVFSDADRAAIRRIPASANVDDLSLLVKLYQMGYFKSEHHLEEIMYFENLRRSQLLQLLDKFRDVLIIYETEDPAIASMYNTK

B1: V5-tagged FKBP39 (protein, UniProt P54397 1-357)
chain: MSMFWGLNMKPERKYSQTIIKSFHISGVALDKGQEAKLYLAAEKQEYIVATVTKAIPQVALDLNFSKGDRIMFYTAGDASVSLLGYLHDIDSEDDEDDDQMTIENLLNSKAIKNSKKSEDDEDENESGEEDEEDTDDDSQIIEEYESFLENGEEEDDDDVDEDNEESGEEDEQDSDDSEAEEEQPKAKVAKLSPGASAKKSGKEQNGVAKKEEAKQQQKKKEKPEAKKEQPKAKEPAKQQPASKDPRTITGGVKIVDQVVGKGEEAKQGKRVSVYYIGRLQSNNKTFDSLLKGKPFKFALGGGEVIKGWDVGVAGMKVGGKRVITCPPHMAYGARGAPPKIGPNSTLVFEVELKAVH

Experiments:
[1] = molecular target: T1, HA-tagged Nprl2 (Drosophila); assay: co-IP; S2 cells co-transfected, lysed in RIPA buffer with protease and phosphatase inhibitors; HA antibody-coated magnet beads 6 h at room temperature, washed six times; western blot; cells in Schneider's medium plus 10% FBS or amino-acid-free medium for 2 h
[2] = molecular target: T2, HA-tagged Nprl3 (Drosophila); assay: as above

Row | Molecule | binding [1] | binding [2]
1 | V5-tagged LacZ (from UniProt P00722 1-1024) | no binding | no binding
2 | B1 | binds | binds
